Test results: PubChem BioAssay AID2685 (National Center for Advancing Translational Sciences (NCATS), 2010)
The list shows a part of the results. Further columns of the screen follow, without active or inactive calls. Compounds called inactive in the main read-out are mostly missing here. The note in brackets gives the kind of curve behind each potency; many fits are weak.

Assay: qHTS Assay for Lipid Storage Modulators in Drosophila S3 Cells;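 as to cell number change: cells counted by Cell Tracker Red CMTPX staining in the red channel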
Conditions: BODIPY lipid droplet fluorescence, 18-24 h; for cell number change: measured here: cell count max response, cells fed with added oleic acid
Procedure, shortened: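 Drosophila S3 cells got compounds at several concentrations plus oleic acid (400 uM solution). Laser-scanning cytometry with 488 nm excitation read lipid droplets at 500-530 nm and cells at 575-640 nm. Percent activity was relative to 20 uM Triacsin C.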

[1] = measured here: lipid fluorescence (Fed channel) AC50, cells fed with added oleic acid
[2] = measured here: cell number channel AC50, cells fed with added oleic acid

SMILES | cell number change [%] | AC50 [1] | AC50 [2]
COC(=O)c1nnn(-c2ccc(Cl)c(Cl)c2)c1C(=O)OC | 3.64 | – | –
CN(c1ccccc1)S(=O)(=O)c1cccc(NC(=O)c2cncc(Br)c2)c1 | -5.3 | 4110 nM [rising, single point] | –
CN1CCN(C(=O)c2ccc3c(Cl)c4c(nc3c2)CCCC4)CC1 | -87.7 | – | –
N=c1c(C(=O)NC2CCCC2)cc2c(=O)n3ccccc3nc2n1CCCN1CCOCC1 | 7.83 | 29100 nM [falling, single point] | –
Cn1cnc2c1c(=O)n(CC(O)CO)c(=O)n2C (configuration not stated) | -16.5 | 517 nM [falling, partial curve] | –
O=S(=O)(c1cccc(COc2c(Cl)cccc2Cl)c1)N1CCOCC1 | -37.8 | – | 4.11 nM [falling, full curve, poor fit]
COCCNC(=O)CN1CCC(NC(=O)Nc2ccccc2)CC1 | 1.45 | 23100 nM [falling, single point] | –
COc1ccc(C(=O)N2CCCC(CO)(Cc3ccccc3C)C2)o1 (configuration not stated) | -14.7 | 4.61 nM [falling, full curve, poor fit] | –
CCC(C(=O)O)N1C(=O)/C(=C/c2cccn2C)SC1=S (configuration not stated) | -7.87 | 517 nM [falling, full curve, poor fit] | –
O=C(C1COc2ccccc2O1)N1CCN(c2nc3c(F)cc(F)cc3s2)CC1 (configuration not stated) | -2.88 | – | –
CC(C(=O)Nc1ccccc1C(F)(F)F)N1CCN(C)CC1 (configuration not stated) | 3.65 | 580 nM [rising, single point] | –
NC(=O)c1ccc(NC(=O)CNC(c2ccccc2)c2ccccc2)cc1 | 16.3 | – | –
O=C1/C(=C/c2ccc(F)cc2)SC(=S)N1N1CCOCC1 | -7.68 | – | –
CCOC(=O)C1CCN(C(=O)/C=C/c2cc(OC)c(OC)c(OC)c2)CC1 | -29.2 | – | 146 nM [rising, full curve, poor fit]
Cc1ccsc1C(=O)OCC(=O)Nc1cccc(F)c1 | -10.4 | 6510 nM [rising, partial curve, poor fit] | –
Cc1nn(-c2cc(N3CCCC3)ccc2[N+](=O)[O-])c(=O)c2ccccc12 | -1.52 | 6510 nM [falling, partial curve, poor fit] | –
CCOc1ccccc1NS(=O)(=O)c1csc(C(N)=O)c1 | – | 6510 nM [rising, single point] | –
COc1ccc(N2C(N)=C(C#N)C(c3cccnc3)C3=C2CC(C)(C)CC3=O)cc1 (configuration not stated) | – | 326 nM [rising, full curve] | 206 nM [rising, full curve]
CC(C)NC(=O)NC(=O)COC(=O)c1ccc(NC(=O)CC#N)cc1 | 5.39 | 6510 nM [falling, single point] | –

Three entries already listed, ordered by count of non-hydrogen atoms, descending:
SMILES | cell number change [%] | AC50 [1] | AC50 [2]
Cc1nn(-c2cc(N3CCCC3)ccc2[N+](=O)[O-])c(=O)c2ccccc12 | -1.52 | 6510 nM [falling, partial curve, poor fit] | –
CC(C)NC(=O)NC(=O)COC(=O)c1ccc(NC(=O)CC#N)cc1 | 5.39 | 6510 nM [falling, single point] | –
COCCNC(=O)CN1CCC(NC(=O)Nc2ccccc2)CC1 | 1.45 | 23100 nM [falling, single point] | –
